Values from PubChem BioAssay AID1259424 (University of Nebraska Medical Center, 2018).
Here is an unselected part of about 14,000 deposited reagents. 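Higher correlation or smaller distance means closer resemblance to KSR1 loss; control wells, including KSR1 knockdowns, recur on many plates.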 Some reagents were tested in more than one well and are listed for each. Not given: the time to read-out.

Aim: 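Seek colon cancer survival genes behaving like KSR1, using a six-gene signature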 (primary screen)
Cell system: human HCT116 colon cancer cells
Reagents: siRNA pool against human genes, 50 nM
Measurement: 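Six signature mRNAs by branched-DNA multiplex assay, scaled to two housekeeping genes and non-targeting median, log2; matched to mean KSR1 knockdown profile by Pearson correlation and euclidean distance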
Scale: mean correlation with KSR1 profile and KSR1 correlation: higher = expression change more like KSR1 knockdown; mean distance from KSR1 profile: higher = expression change less like KSR1 knockdown

Gene,mean correlation with KSR1 profile,mean distance from KSR1 profile,"KSR1 correlation, replicate 1","KSR1 correlation, replicate 2","KSR1 correlation, replicate 3"
MSL2,-0.827,7.42,-0.717,-0.724,-0.628
PACSIN2,-0.185,0.986,-0.504,0.125,-0.0239
WNT5B,-0.858,2.39,-0.807,-0.764,-0.864
GRK3,0.665,1.34,0.63,0.654,0.535
GRK3,0.419,1.85,0.568,0.107,0.393
ZNF165,-0.0302,1.41,-0.164,0.336,-0.21
RXFP3,0.228,2.19,0.279,0.264,0.441
ZNF711,-0.206,3.37,-0.0599,-0.345,-0.0328
MRPS5,0.586,0.893,0.0755,0.483,0.698
TIMMDC1,-0.384,1.57,-0.506,-0.266,-0.132
HSPBAP1,0.401,1.88,0.452,0.767,-0.316
ATP5MC2,0.823,4.17,0.847,0.609,0.791
KCNAB2,-0.929,2.57,-0.959,-0.764,-0.749
DRC9,0.766,3.46,0.568,0.797,0.82
DARS1,0.3,2.04,0.371,0.328,0.073
METTL1,-0.583,6,-0.599,-0.594,-0.567
TPMT,0.367,1.64,0.316,0.396,0.344
KCNQ3,-0.151,2.25,-0.193,-0.162,-0.177
STRN3,-0.229,2.09,-0.453,-0.55,-0.404
NUDT18,0.544,2.18,0.556,0.601,0.492
PCK1,0.428,2.82,0.501,0.649,0.0341
NPR1,0.338,1.64,0.763,0.33,-0.132
NPR1,0.196,2.52,0.259,0.551,-0.0765
TNPO3,-0.256,2.55,-0.534,-0.0925,-0.187
N4BP1,-0.318,1.42,-0.349,-0.159,0.03
TRIM3,-0.681,1.57,-0.658,-0.963,-0.44
RPN1,0.387,2.55,0.234,0.445,0.481
SV2C,-0.609,2.28,-0.414,-0.76,-0.438
SPTBN5,0.0593,3.62,0.185,-0.17,0.0278
TKFC,-0.00944,2.27,-0.0476,-0.228,-0.144
TLX1,0.115,1.35,0.499,0.521,-0.362
DTL,-0.537,1.71,-0.701,-0.319,-0.562
ILF3,-0.21,2.24,-0.0786,-0.0107,-0.0656

Look-ups from above.
METTL1, mean distance from KSR1 profile = 6
KCNQ3, KSR1 correlation, replicate 3: -0.177
Entry for TNPO3 under “KSR1 correlation, replicate 1”: -0.534
Under “KSR1 correlation, replicate 2”, TPMT shows 0.396

Additional entries:
Gene,mean correlation with KSR1 profile,mean distance from KSR1 profile,"KSR1 correlation, replicate 1","KSR1 correlation, replicate 2","KSR1 correlation, replicate 3"
SLMAP,0.02,1.31,0.257,-0.0467,-0.022
FEZF2,0.544,1.17,0.574,0.429,0.607
CORIN,0.138,3.45,0.21,0.219,0.0251
GPR6,0.885,2.91,0.836,0.838,0.794
CIDEC,-0.241,2.71,-0.357,-0.486,-0.114
SEMA6C,-0.0192,1.41,0.192,-0.287,0.0555
PCNP,-0.309,1.66,-0.339,-0.461,-0.464
TINF2,-0.439,4.39,-0.45,-0.407,-0.557
VRTN,0.37,1.78,0.379,0.19,0.322
GPC5,-0.642,1.87,-0.637,-0.8,-0.473
RFC2,0.213,2.15,0.106,0.177,0.312
LSM4,-0.385,1.99,-0.422,0.00718,-0.561
EDA,-0.651,1.63,-0.737,-0.342,-0.599
RAB11B,0.374,2.39,0.211,0.337,0.525
RAB10,-0.714,2.18,-0.438,-0.876,-0.509
APAF1,0.524,1.82,0.539,0.636,0.532
COL13A1,-0.0115,1.56,0.0862,0.142,-0.453
